This is one part of the list. Shown are side measurements of this screen, not its main read-out; they come without a call. The list favours compounds with an active or inconclusive main result. Potencies come from curve fits of mixed quality, noted in brackets.
Test: qHTS Assay for Modulators of Lamin A Splicing
Details: HeLa LMNA splicing GFP/RFP minigene ratio, 48 h
Summary of the method: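 S3 HeLa cells stably expressing lamin A-EGFP splicing minigene plus DsRed2, 600 cells/well, 48 h compound exposure at 37C. Laser-scanning cytometry; analysed as GFP (500-530 nm)/RFP (575-640 nm) total intensity ratio; 0.5% DMSO vehicle.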

[1] = measured here: RFP viability control channel
[2] = measured here: GFP splicing reporter channel

Q: For Cc1ccccc1NC(=O)CSc1ccncc1, which AC50 [1] is on record?
A: 35.5 µM [falling, single point]

Q: Which AC50 [2] does the source give for C[C@H](CCC(=O)O)[C@H]1CC[C@H]2[C@@H]3CC[C@@H]4C[C@H](O)CC[C@]4(C)[C@H]3C[C@H](O)[C@]12C here?
A: 0.708 µM [falling, partial curve]

Q: And the AC50 [1]?
A: 12.6 µM [rising, single point]

Q: For Oc1c(C(c2ccccc2)N2CCCCC2)sc2ncnn12 (configuration not stated), which AC50 [1] is on record?
A: 35.5 µM [rising, single point]

Q: With CCN1C(=O)C(c2ccc(O)cc2)(c2ccc(O)cc2)c2ccccc21 as the compound, how does the AC50 [2] read?
A: 5.01 µM [falling, partial curve, poor fit]

Q: Which results are given for Cc1ccc(S(=O)(=O)N(CC(=O)O)Cc2ccccc2)cc1?
A: AC50 [2]: 12.6 µM [falling, partial curve, poor fit]; AC50 [1]: 10 µM [falling, partial curve]

Q: Which AC50 [1] does the source give for C=CCc1ccc(OCCCCNC2CCCC2)c(OC)c1 here?
A: 3.98 µM [rising, partial curve, poor fit]

Q: Which AC50 [1] does the source give for Cc1ccnc(NC(=O)C23CC4CC(CC(C4)C2)C3)c1 here?
A: 20 µM [rising, partial curve]

Q: Which AC50 [1] does the source give for Nc1nc(-c2ccccc2)nc2sc3c(c12)CCCC3 here?
A: 20 µM [rising, single point]

Q: With Nc1ccc2cc3ccc(N)cc3nc2c1 as the compound, how does the AC50 [2] read?
A: 5.01 µM [rising, single point]

Q: And the AC50 [1]?
A: 12.6 µM [falling, partial curve, poor fit]

Q: With Cc1nc2ccccc2c2nc3ccccc3n12 as the compound, how does the AC50 [1] read?
A: 10 µM [rising, single point]

Q: With Cc1cccc(CNc2ncncc2-c2ccccc2Cl)c1 as the compound, how does the AC50 [2] read?
A: 35.5 µM [falling, single point]

Q: What does the source list for CCOc1ccc(Br)cc1C1C(C(=O)OC)=C(N)Oc2cc(N(C)C)ccc21 (configuration not stated)?
A: AC50 [2]: 28.2 µM [falling, single point]; AC50 [1]: 11.2 µM [falling, partial curve]

Q: Which AC50 [2] does the source give for CCC1CN(C(=O)Nc2cccc3c2CCCC3)c2ccccc2O1 (configuration not stated) here?
A: 3.98 µM [rising, single point]

Q: Which AC50 [2] does the source give for Cc1nnc(NC(=O)CSc2ccc3nnc(-c4cccnc4)n3n2)s1 here?
A: 0.562 µM [falling, full curve]

Q: What about the AC50 [1] of the same compound?
A: 0.891 µM [falling, full curve, poor fit]

Q: What does the source list for CCCCC1CCC(/C(N)=N/O)CC1 (configuration not stated)?
A: AC50 [2]: 22.4 µM [rising, single point]; AC50 [1]: 35.5 µM [rising, single point]

Q: Which AC50 [1] does the source give for CC1(CCc2ccccc2)NC(=O)N(CC(=O)Nc2ccc(S(N)(=O)=O)cc2)C1=O (configuration not stated) here?
A: 11.2 µM [rising, partial curve]

Q: With O=C(c1cccs1)N(c1ccc(F)cc1)C1C=CS(=O)(=O)C1 (configuration not stated) as the compound, how does the AC50 [1] read?
A: 17.8 µM [falling, partial curve, poor fit]

Q: With CC(C(=O)Oc1ccc2c(c1)OCO2)N1C(=O)c2ccccc2C1=O (configuration not stated) as the compound, how does the AC50 [1] read?
A: 11.2 µM [rising, partial curve]

Q: What does the source list for Cn1c2[n+](c3ccc(Cl)cc3c1=O)Cc1ccccc1-2?
A: AC50 [2]: 12.6 µM [falling, single point]; AC50 [1]: 22.4 µM [falling, single point]

Q: Which AC50 [1] does the source give for CC1(C)Cc2ccccc2C(NNC(=O)c2ccccn2)=N1 here?
A: 12.6 µM [rising, single point]

Q: Which AC50 [1] does the source give for CCOC(=O)c1[nH]c2c(c1-c1ccccc1)C(=O)CC(c1ccc(OC)c(OC)c1)C2 (configuration not stated) here?
A: 14.1 µM [rising, partial curve]

Q: For CCOC(=O)c1c(C)c(C(=O)NCc2ccccn2)c(C)n1C, which AC50 [1] is on record?
A: 0.112 µM [falling, partial curve, poor fit]

Q: What does the source list for CCC(Sc1nc2ccccc2c2nc(-c3ccccc3)nn12)C(=O)Nc1cccc(OC)c1 (configuration not stated)?
A: AC50 [2]: 0.112 µM [rising, full curve, poor fit]; AC50 [1]: 0.158 µM [rising, full curve, poor fit]

Q: With Cc1occc1-c1nnc(SCC(=O)Nc2nc(C(C)(C)C)cs2)o1 as the compound, how does the AC50 [1] read?
A: 10 µM [rising, partial curve]

Q: With O=C(NCCOc1ccccc1)c1cc(C(=O)NCCOc2ccccc2)cc([N+](=O)[O-])c1 as the compound, how does the AC50 [2] read?
A: 12.6 µM [rising, single point]

Q: What about the AC50 [1] of the same compound?
A: 22.4 µM [rising, single point]

Q: With O=C(Nc1nccs1)c1ccc(COc2ccc(F)cc2)o1 as the compound, how does the AC50 [2] read?
A: 20 µM [rising, partial curve]

Q: With Cc1ccc(-n2c(O)c(C=Nc3cc(C)on3)c3ccccc3c2=O)c(C)c1 as the compound, how does the AC50 [1] read?
A: 12.6 µM [rising, partial curve]

Q: Which AC50 [2] does the source give for COC(=O)C(C)Sc1ccc2nnc(CCNS(=O)(=O)c3ccccc3)n2n1 (configuration not stated) here?
A: 14.1 µM [falling, single point]

Q: With O=C(Nc1cccc(Cl)c1)c1ccc(F)c(S(=O)(=O)N2CCC3(CC2)OCCO3)c1 as the compound, how does the AC50 [1] read?
A: 11.2 µM [falling, partial curve]

Q: Which AC50 [2] does the source give for Cc1ccc(S(=O)(=O)c2c(C)nn(C(C)(C)C)c2OC(=O)c2cccs2)cc1 here?
A: 35.5 µM [falling, single point]

Q: What about the AC50 [1] of the same compound?
A: 25.1 µM [falling, single point]

Q: Which AC50 [2] does the source give for O=C(Nc1ccc(F)cc1F)c1cc2nc(-c3ccco3)cc(C(F)(F)Cl)n2n1 here?
A: 0.1 µM [falling, full curve]

Q: What about the AC50 [1] of the same compound?
A: 0.1 µM [falling, full curve, poor fit]

Q: Which AC50 [2] does the source give for CC1=NN(C(=O)Cn2ccc([N+](=O)[O-])n2)C(O)(C(F)(F)F)C1 (configuration not stated) here?
A: 14.1 µM [rising, single point]

Q: Which AC50 [1] does the source give for CCn1c(CCNC(=O)c2ccc(OC)cc2)nnc1SCc1ccc(Cl)cc1Cl here?
A: 12.6 µM [rising, single point]

Q: With O=C(C1CCN(CCCc2ccccc2)CC1)N(CCc1ccccc1)Cc1ccccc1 as the compound, how does the AC50 [2] read?
A: 11.2 µM [rising, partial curve]

Q: And the AC50 [1]?
A: 20 µM [rising, single point]

Q: Which AC50 [1] does the source give for CCCCn1c(N)c(C(=S)NC(=O)CC(C)(C)C)c(=O)n(C)c1=O here?
A: 35.5 µM [rising, single point]

Q: With O=S(=O)(NCCc1csc2nc(-c3ccccc3)nn12)c1ccc(Cl)s1 as the compound, how does the AC50 [2] read?
A: 2 µM [falling, partial curve, poor fit]

Q: What about the AC50 [1] of the same compound?
A: 0.501 µM [falling, full curve, poor fit]

Q: Which AC50 [2] does the source give for CCCCCCSc1nsc(NC(C)=O)n1 here?
A: 12.6 µM [rising, partial curve]

Q: What about the AC50 [1] of the same compound?
A: 25.1 µM [rising, single point]

Q: With CCc1ccc(-c2cc(C(=O)N3N=C(C(F)F)CC3(O)C(F)F)c3ccccc3n2)cc1 (configuration not stated) as the compound, how does the AC50 [1] read?
A: 10 µM [rising, partial curve, poor fit]

Q: Which AC50 [2] does the source give for Cc1ccc(S(=O)(=O)N(C)C)cc1NC(=S)NC(C)CCCC(C)C (configuration not stated) here?
A: 10 µM [rising, partial curve]

Q: What about the AC50 [1] of the same compound?
A: 15.8 µM [rising, partial curve]

Q: Which results are given for CCOC(=O)c1c(C)[nH]c(CCC(=O)Nc2ccc(Cl)cc2C)c1C?
A: AC50 [2]: 0.0224 µM [rising, full curve, poor fit]; AC50 [1]: 35.5 µM [rising, partial curve, poor fit]

Q: For COc1ccc(-c2nc3cnc(Nc4cccc(OC)c4)nc3n(Cc3cccs3)c2=O)cc1, which AC50 [2] is on record?
A: 11.2 µM [falling, partial curve]

Q: What about the AC50 [1] of the same compound?
A: 11.2 µM [falling, partial curve]

Q: Which results are given for N#C/C(=C\c1ccc(Sc2ccccc2)o1)c1nc2ccccc2[nH]1?
A: AC50 [2]: 1.41 µM [rising, full curve, poor fit]; AC50 [1]: 7.94 µM [rising, partial curve, poor fit]

Q: Which AC50 [2] does the source give for O=C(NCCCN1CCOCC1)c1csc2c1CCCC2 here?
A: 0.355 µM [falling, full curve, poor fit]

Q: What about the AC50 [1] of the same compound?
A: 0.501 µM [falling, full curve, poor fit]

Q: Which AC50 [1] does the source give for Cc1noc(C(=O)N2CC3(C)CC2CC(C)(C)C3)c1Cl (configuration not stated) here?
A: 35.5 µM [rising, single point]

Q: What does the source list for O=C(Nc1cccc(Br)c1)c1ccc(Cl)c(S(=O)(=O)N2CCOCC2)c1?
A: AC50 [2]: 7.08 µM [rising, partial curve]; AC50 [1]: 3.55 µM [rising, full curve]

Q: With CCOc1ccc(NC(=O)c2cc3c(=O)n(Cc4cccs4)ccc3nc2C)cc1 as the compound, how does the AC50 [1] read?
A: 6.31 µM [falling, single point]

Q: Which AC50 [1] does the source give for Cc1sc(NC(=O)CN2CCOCC2)nc1-c1ccc2c(c1)CCN2S(=O)(=O)c1ccccc1 here?
A: 2.82 µM [rising, full curve]

Q: Which AC50 [2] does the source give for CCN1C(=O)c2cccc3c(Cl)ccc(c23)C1=O here?
A: 22.4 µM [rising, partial curve, poor fit]

Q: And the AC50 [1]?
A: 0.112 µM [rising, partial curve, poor fit]

Q: Which AC50 [1] does the source give for O=C(N/N=C/c1sc(N2CCCCC2)nc1-c1cccs1)c1cccnc1 here?
A: 15.8 µM [rising, partial curve]

Q: For CCN1CCN(C(=O)N2CCOCC2)CC1, which AC50 [2] is on record?
A: 0.0112 µM [falling, full curve, poor fit]

Q: Which AC50 [1] does the source give for O=C(COC(=O)c1cccnc1Cl)Nc1ccccc1OC(F)F here?
A: 0.0355 µM [rising, full curve, poor fit]

Q: For C=CCn1c(SCC(=O)NC23CC4CC(CC(C4)C2)C3)nc2cc(C(=O)O)ccc2c1=O, which AC50 [2] is on record?
A: 0.0224 µM [falling, full curve]

Q: What about the AC50 [1] of the same compound?
A: 6.31 µM [falling, partial curve, poor fit]

Q: For Cc1nc2cc(NC(=O)COc3ccc(C#N)cc3)ccc2n1-c1ccccc1, which AC50 [1] is on record?
A: 14.1 µM [rising, partial curve]

Q: Which AC50 [2] does the source give for COc1ccccc1N1CCN(S(=O)(=O)c2ccc3nc(-c4ccccc4)[nH]c3c2)CC1 here?
A: 12.6 µM [rising, single point]

Q: What about the AC50 [1] of the same compound?
A: 22.4 µM [rising, partial curve]
